Results published in patent US6242482A, “Prostaglandin compounds and derivatives thereof, compositions containing the same and method of using the same for the treatment of congestive heart failure” (priority 2000, dated 2001).
Some results were stated once for a whole list of compounds, not compound by compound. Some ranges recur; such a range may be that of the whole group of compounds.

Test system: Human Platelet Aggregation (collagen-induced)
Experiment: Anti-aggregatory activity, 1 min incubation with PRP, collagen-induced (Example 8)
Type: cell-based
Method: Blood from healthy human volunteers who had not taken any medicine for at least 14 days was collected by venopuncture into 3.15% (w/v) tri-sodium citrate (9:1 v/v). The blood was centrifuged at 800 g for 15 minutes to produce PRP. The PRP was further centrifuged at 12,000 g for 1 minute to produce PPP. A total of 12 volunteers donated blood for the study.
Platelet aggregation was studied using a dual channel Payton aggregometer calibrated with PRP (0%) and PPP (100%) with respect to the degree of light transmission. Aliquots of PRP (500 μl) were added to siliconized cuvettes, stirred (1000 revs/min) and warmed to 37° C. The platelets were incubated for 1 minute to establish a stable baseline prior to investigation. A submaximal concentration of the aggregating agent collagen (1 μg/ml) was added to the PRP and the platelet aggregation was monitored as the increase in light transmission observed over a 4 minute period.
The percentage inhibition of the platelet aggregation was calculated using the peak increase in light transmission observed over the 4 minute period following addition of collagen, as compared to that of control. This experiment was repeated using PRP from at least three human volunteers for each compound under study.

## CCCCCC(CCC1C(OC(C)=O)CC2Cc3c(cccc3OCC(=O)O)CC21)OC(C)=O (stereo not shown) [Compound 4, Compound X Diacetate]
  anti-platelet activity compared with Compound X: Compound X had significantly greater anti-platelet activity than Compounds 4-7
